According to PubChem BioAssay AID623959 (National Center for Advancing Translational Sciences (NCATS), 2012):
The campaign covered roughly 1,400 compounds. Fewer than 10 were called active. About 8% were inconclusive and are not listed. Calls follow the shape of the dose curve; as a rule, active = well fitted curve in the direction sought with a large enough effect; inconclusive = small, poorly fitted or top-dose-only effect, or another doubt; inactive = no such curve, though single readings can be large or run the other way. The list shows a part of the results.

Protein sequences, listed by entry. Tags and fused reporters are not part of them.
UniProt Q8NER1, whole entry, looked up: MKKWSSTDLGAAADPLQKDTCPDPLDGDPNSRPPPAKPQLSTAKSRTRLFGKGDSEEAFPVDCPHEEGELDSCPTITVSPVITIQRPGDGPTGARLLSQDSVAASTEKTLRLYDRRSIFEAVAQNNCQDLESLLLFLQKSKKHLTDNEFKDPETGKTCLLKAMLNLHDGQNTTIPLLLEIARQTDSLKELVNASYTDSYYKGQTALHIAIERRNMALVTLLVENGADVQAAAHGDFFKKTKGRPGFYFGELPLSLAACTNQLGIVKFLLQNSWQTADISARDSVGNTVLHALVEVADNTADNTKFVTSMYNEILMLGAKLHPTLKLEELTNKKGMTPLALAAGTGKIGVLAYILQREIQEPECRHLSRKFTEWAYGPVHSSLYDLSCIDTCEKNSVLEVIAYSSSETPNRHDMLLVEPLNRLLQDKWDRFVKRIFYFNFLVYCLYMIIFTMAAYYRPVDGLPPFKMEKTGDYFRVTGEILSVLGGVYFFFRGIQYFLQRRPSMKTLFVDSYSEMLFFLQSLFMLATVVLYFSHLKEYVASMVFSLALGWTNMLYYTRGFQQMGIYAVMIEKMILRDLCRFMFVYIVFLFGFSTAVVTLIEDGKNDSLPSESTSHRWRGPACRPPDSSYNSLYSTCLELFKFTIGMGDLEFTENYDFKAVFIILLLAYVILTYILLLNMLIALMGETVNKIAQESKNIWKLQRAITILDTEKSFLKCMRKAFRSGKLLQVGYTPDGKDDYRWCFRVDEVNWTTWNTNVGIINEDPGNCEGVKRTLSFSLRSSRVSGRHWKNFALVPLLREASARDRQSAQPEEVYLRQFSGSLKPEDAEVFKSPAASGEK

target: Transient receptor potential cation channel subfamily V member 1 (Homo sapiens) (UniProt Q8NER1); test: qHTS Assay for Compounds that Act as Potentiators of the Vanilloid Receptor 1: Hit Validation; settings: TRPV1-expressing cells, Fluo-8 calcium influx, capsaicin EC20; series mostly up to 42.1 µM; activity change, positive = potentiation: at the top concentration; also: % of control where 0% means no effect
Outline: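 TRPV1 cells (2000/well, overnight 35.5 °C) loaded with Fluo-8 calcium dye 40–90 min at room temperature. FDSS fluorescence (ex 480/em 520 nm) read 3 min after compound, then 2 min after capsaicin at EC20.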

Compound | activity change, positive = potentiation
CCCOc1ccc(CNC(=S)Nc2ccccc2)cc1Cl | inactive: -37.7%
O=C(NCCCc1ccccc1)c1ccc(F)cc1 | inactive: -38.9%
CCOc1ccc(NS(=O)(=O)c2ccc(OCC(=O)NCCCOC)cc2)cc1 | inactive: 2.17%
CN1CCN(c2ccccc2NC(=O)c2ccc([N+](=O)[O-])o2)CC1 | inactive: -7.02%
COc1cccc(/C=N/n2c(SC)nnc2-c2ccccc2)c1O | inactive: -38.9%
Cc1ccc(NC(=O)CNCc2ccccc2Cl)cc1S(=O)(=O)N(C)C | inactive: 4.09%
CC1CCN(C(=O)/C=C/c2ccc(C(C)(C)C)cc2)CC1 | inactive: -38.1%
COc1ccc(CNC(=O)CCSc2ccc(F)cc2)cc1OC | inactive: -34.4%
CCC1CCCCN1CCCNC(=O)c1cc2c(=O)oc3ccc(C)cc3c2s1 (centres undefined) | inactive: -1.36%
Cc1nc(N2CCOCC2)c2c(C)c(C(=O)Nc3ccccc3C(F)(F)F)sc2n1 | inactive: -37.7%
NCCCn1c(C(=O)c2cc(Cl)c(N)c(Cl)c2)c2ccccc2[n+]1[O-] | inactive: 2.46%
O=C(COC(=O)/C=C/C(=O)N1CCN(c2ccccc2)CC1)NCc1ccc(F)cc1 | inactive: -6.3%
Cc1cccn2c(=O)c3cc(C(=O)NCC4CCCO4)c(=N)n(C4CCCCC4)c3nc12 (centres undefined) | inactive: -24.9%
Cc1ccc2nc(NC(=O)CS(=O)(=O)Cc3ccccc3)sc2c1 | inactive: -6.24%
Cc1cc(C)cc(C(=O)Nn2cnnc2)c1 | inactive: -5.31%
Clc1nc2ccccc2nc1-c1ccccc1 | inactive: -15.2%
CS(=O)(=O)N(CC(=O)N1CCc2ccccc2C1)Cc1ccccc1 | inactive: -5.56%
CC(OC(=O)CC1CCCCC1)C(=O)Nc1ccc(F)cc1 (centres undefined) | inactive: -39%
CCCCOc1ccc(/C=C/C2=CC(C)(C)NC(=S)N2)cc1OCC | inactive: -7.3%
Cc1cc(C)c2nc(-c3ccccn3)cc(C(=O)NCc3cc(C)n(C)n3)c2c1 | inactive: -32.2%
O=C(Nc1ncnc2sc3c(c12)CCC3)c1ccco1 | inactive: -6.91%
O=C(CNc1cccc(C(F)(F)F)c1)N/N=C/C1CCCCC1 | inactive: -3.34%

Compound | activity change, positive = potentiation
Cc1ccc(N2CCN(C(=O)N3CCOCC3)CC2)c(C)c1 | inactive: -39.1%
Nc1nn(S(=O)(=O)c2cccc3nsnc23)cc1-c1ccc(Br)cc1 | inactive: -5.21%
CC(=O)c1cccc(NC(=O)/C(=C\c2cccnc2)NC(=O)c2ccc(C)cc2)c1 | inactive: 3.38%
CC(=O)c1cccc(NC(=O)/C=C/c2ccc([N+](=O)[O-])s2)c1 | inactive: -33.4%
O=[N+]([O-])c1ccc(/C=C/c2ccc3cccc([N+](=O)[O-])c3n2)cc1 | inactive: -1.42%
COc1ccc(-c2cc(C(F)F)n3ncc(C(=O)Nc4cc(C)on4)c3n2)cc1 | inactive: -5.22%
CCCOc1ccc(/C=C/c2[nH]c(=O)[nH]c(=O)c2[N+](=O)[O-])cc1OCC | inactive: -3.16%
Cc1oc(-c2ccc(Cl)cc2)nc1CN1CCC(C(=O)N2CCN(Cc3ccccc3)CC2)CC1 | inactive: 25.8%
COc1ccc(C(=O)CC(=O)C(=O)Nc2cccc(C(C)=O)c2)cc1 | inactive: -1.31%
O=C(NC(NC(=S)Nc1ccccc1C(=O)O)C(Cl)(Cl)Cl)c1ccccc1 (centres undefined) | inactive: -13.4%
COC(=O)C(C)(C)ONC(=O)Nc1ccccc1Cl | inactive: -5.01%
CCN(CC(=O)Nc1ccc2c(c1)OCCO2)C(=O)c1ccc(C(F)(F)F)cc1 | inactive: -5.62%
O=C(c1cc(-c2ccc(Cl)cc2Cl)on1)N1CCOCC1 | inactive: -39.2%
O=C(NCCCn1ccnc1)C(=O)NCC1OCCN1S(=O)(=O)c1ccccc1 (centres undefined) | inactive: -8.01%
Cc1ccc(NC(=O)CCS(=O)(=O)c2ccc3c(c2)NC(=O)C(C)S3)cc1Cl (centres undefined) | inactive: 1.02%
COc1ccc(CCNc2nc(-c3cccnc3)nc3ccccc23)cc1OC | inactive: -32.4%
CS(=O)(=O)N(CC(=O)NCc1ccco1)c1ccc(OCc2ccccc2)cc1 | inactive: -4.78%
CC(C)(C)Cc1nnc(NC(=O)CSc2ccccc2)s1 | inactive: -6.48%
c1ccc2c(c1)oc1c(Nc3ccc(CN4CCOCC4)cc3)ncnc12 | inactive: -34.7%
Cc1nc2ccccc2cc1OCc1ccc(Cl)cc1 | inactive: -38.1%
CCOC(=O)c1ccc(NC(=O)/C=C/c2cccs2)cc1 | inactive: -35.9%
CC(C)C(=O)c1cn(CC(=O)N2CCCc3ccccc32)c2ccccc12 | inactive: -5.07%

Filtered by structure, the compounds so far with two or more sulfur atoms
Compound | activity change, positive = potentiation
Cc1ccc2nc(NC(=O)CS(=O)(=O)Cc3ccccc3)sc2c1 | inactive: -6.24%
Nc1nn(S(=O)(=O)c2cccc3nsnc23)cc1-c1ccc(Br)cc1 | inactive: -5.21%
Cc1ccc(NC(=O)CCS(=O)(=O)c2ccc3c(c2)NC(=O)C(C)S3)cc1Cl (centres undefined) | inactive: 1.02%
CC(C)(C)Cc1nnc(NC(=O)CSc2ccccc2)s1 | inactive: -6.48%

Remaining list, next part

Compound | activity change, positive = potentiation
COc1ccc2c(c1)sc(=N)n2CC(=O)Nc1cc(C)cc(C)c1 | inactive: -8.63%
CC(Oc1cccc(Cl)c1)C(=O)Nc1nc(-c2ccccn2)cs1 (centres undefined) | inactive: -5.61%
CC(C)c1ccc(NC2CCCN(C(=O)c3cccc4nccnc34)C2)cc1 (centres undefined) | inactive: -27.2%
O=C(c1cc2cc(Br)cc(Br)c2oc1=O)N1CCOCC1 | inactive: -35.7%
Cc1ccc(S(=O)(=O)/N=C(/c2ccccc2)N(C)c2ccc(O)cc2)cc1 | inactive: -11%
c1ccc2c(c1)c1c3n2CCNC3CCC1 (centres undefined) | inactive: -5.1%
O=C(/C=C\c1cn(-c2ccccc2)nc1-c1ccc2c(c1)OCCO2)N1CCOCC1 | inactive: -39.2%
CCN1CCN(Cc2nc3c(c(=O)n(C)c(=O)n3C)n2CC(=O)c2ccccc2)CC1 | inactive: -9.16%
CC(=O)NC(CC(=O)NCCN1C(=O)S/C(=C\c2ccccc2)C1=O)c1ccccc1 (centres undefined) | inactive: -8.32%
O=C(NCc1cccs1)C1CCC(CNS(=O)(=O)c2cccc3nsnc23)CC1 (centres undefined) | inactive: -4.82%
COc1cccc(/C=C/C(=O)Nc2cccc(C(C)=O)c2)c1OC | inactive: -16.5%
CCOc1ccccc1NC(=O)CCc1nnc2ccc(N3CCC(C)CC3)nn12 | inactive: -6.18%
Cc1ccc(S(=O)(=O)N(CC(=O)N2CCOCC2)CC(=O)N2CCOCC2)cc1 | inactive: -6.45%
Cn1cc(Br)c(C(=O)n2cc(Br)cn2)n1 | inactive: -5.04%
O=C(Nc1nc(-c2ccccc2)cs1)c1ccc(Br)o1 | inactive: -37.4%
CN(C)/C=C/C(=O)c1nnn(C2CCCCC2)c1NC1CCCCC1 | inactive: -35.6%
COc1ccc(C(C#N)c2cnccn2)cc1OC (centres undefined) | inactive: 4.57%
COc1ccccc1-n1c(SCC(N)=O)nc2sc3c(c2c1=O)CCC3 | inactive: -7.03%
COc1ccccc1NS(=O)(=O)c1cc(NC(=O)c2cccs2)ccc1N1CCCC1 | inactive: -3.26%
[O-]/C(=C(\C(=S)Nc1ccc(Cl)cc1)[n+]1ccccc1)c1ccc(OC(F)F)cc1 | inactive: -7.02%
Cc1ncsc1CCC(=O)N1CCCC(Nc2ccc(C(C)C)cc2)C1 (centres undefined) | inactive: -39.8%
Cc1cc(NC(=O)c2cc(-c3ccccc3Cl)nc3ccccc23)no1 | inactive: -0.359%

Compound | activity change, positive = potentiation
CC(C)Sc1ccc(C(=O)Nc2ccc(F)cc2F)cn1 | inactive: -31.7%
COC(=O)c1nnn(-c2nc(N(C)C)nc(N(C)C)n2)c1C | inactive: 4.29%
CCC(Sc1ccccn1)C(=O)Nc1nnc(C)s1 (centres undefined) | inactive: -15.1%
COc1ccc(C=C2C(=O)c3ccccc3C2=O)cc1O | inactive: 3.15%
O=C(N/N=C\c1ccc(F)cc1)c1ccc(F)cc1 | inactive: -35.9%
CCOC(=O)c1ccc(Nc2nnc(C)c3ccccc23)cc1 | inactive: -37.7%
O=C(Nc1ccc(C(F)(F)F)cc1)c1ccc2ncsc2c1 | inactive: -39%
O=C(CN1CCOCC1)Nc1nc(-c2ccccc2)cs1 | inactive: -36.1%
CCOc1ccc(C(=O)OCC(=O)N2CC(C)OC(C)C2)cc1OCC (centres undefined) | inactive: 2.03%
COc1ccc(CCNC(=O)c2noc3c2CCCC3)cc1OC | inactive: -9.36%
COc1ccc(/C=C(\NC(=O)c2ccccc2)C(=O)NCc2cccnc2)cc1 | inactive: -2.1%
O=C(Cc1ccc(F)cc1)Nc1nc(-c2ccc(F)cc2)cs1 | inactive: -37.2%
Clc1cc(Br)ccc1OCCOCCN1CCOCC1 | inactive: -0.348%
Cc1cc(C)cc(NC(=O)COc2ccc3c(C)c(Cc4ccccc4)c(=O)oc3c2)c1 | inactive: 5.36%
CC(=O)N1CCN(C(=O)c2cc(S(=O)(=O)N3CCN(c4ccccc4)CC3)ccc2Cl)CC1 | inactive: 0.0319%
CSc1ccccc1NC(=O)c1cccs1 | inactive: -12.5%
Cc1ccccc1NC(=O)CCN1CCN(Cc2ccccc2)CC1 | inactive: 6.3%
O=C(COc1ccccc1Cl)NCCCNC(=O)c1ccco1 | inactive: -5.63%
COc1ccc(C(=O)Nc2nc3ccccc3s2)cc1 | inactive: -36%
Cc1cc(C(F)(F)F)n2nc(-c3cnn(C)c3C(F)(F)F)c(Br)c2n1 | inactive: -6.52%
O=C(Nc1ccc(S(=O)(=O)NC2=NCCCCC2)cc1)c1ccc([N+](=O)[O-])s1 | inactive: 10.5%
COCCN1C(=O)N(c2cccc(C)c2)C(=O)C1CC(=O)Nc1cc(OC)cc(OC)c1 (centres undefined) | inactive: 0.774%

Compound | activity change, positive = potentiation
COc1ccc(Nc2ccc(N3C(=O)CC(C)C3=O)cc2[N+](=O)[O-])cn1 (centres undefined) | inactive: -9.15%
COc1ccc(NC(=O)c2sc3nc(C)cc(C)c3c2N)cc1 | inactive: 5.48%
O=C(N/N=C/c1c(O)n(-c2ccccc2Cl)c(=O)c2ccccc12)c1cccnc1 | inactive: 2.99%
COc1ccc(S(=O)(=O)Nc2ccc(Oc3ccsc3C(=O)O)cc2)cc1 | inactive: -0.892%
CC(C)c1ccc(NC2CCCN(C(=O)c3ccnc(Cl)c3)C2)cc1 (centres undefined) | inactive: -38.9%
COc1ccc(/C=C/C(=O)Nc2cccnc2Cl)cc1 | inactive: -37.6%
Cc1nn(-c2ccccc2)nc1C(=O)Nc1ccc2[nH]ncc2c1 | inactive: -35%
Cn1c(=O)oc2cc(S(=O)(=O)N3CCCC(C(=O)NC4CCCc5ccccc54)C3)ccc21 (centres undefined) | inactive: -5.23%
COc1cc(OC)cc(C(=O)Nc2c(F)cccc2F)c1 | inactive: -4.51%
CC(C)C[C@H](NC(=O)c1nc[nH]c1C(=O)N1CCC(C)CC1)C(=O)OCc1ccccc1 | inactive: -10.6%
CNC(=S)NNC(=O)CNc1ccc(C)c(Cl)c1 | inactive: -9.79%
COc1cc(NC(=O)CSc2nc(C)cc(C)n2)cc(OC)c1OC | inactive: 0.95%
COc1ccc(N2C(=O)CSC2c2cccs2)cc1 (centres undefined) | inactive: -5.89%
O=C(CSc1nc2ccccc2[nH]1)c1ccccc1F | inactive: 3.85%
CCS(=O)(=O)N1Cc2ccccc2CC1C(=O)Nc1nnc(SCc2ccc(F)cc2)s1 (centres undefined) | inactive: 17.8%
CCOc1ccc(NC(=O)Cc2c(C(=O)O)n(C)c3ccccc23)cc1 | inactive: -7.56%
COc1ccc(/C=N/N2CCN(c3ccccc3)CC2)cc1Br | inactive: -11.7%
COc1ccc(-c2ccc(NS(=O)(=O)c3cc([N+](=O)[O-])ccc3C)cc2)nn1 | inactive: 3.92%
O=C(NC(Cc1c[nH]c2ccccc12)C(=O)N/N=C/c1ccc(Br)cc1)c1cccs1 (centres undefined) | inactive: 0.128%
C=CCn1c(SCC(=O)Nc2sc3c(c2C#N)CCC3)nnc1C1COc2ccccc2O1 (centres undefined) | inactive: 2.16%
O=C(O)c1c(-c2ccccc2)oc2ccc(O)cc12 | inactive: -2.13%

Four entries picked at random from the list so far, as already listed:
Compound | activity change, positive = potentiation
COc1ccc2c(c1)sc(=N)n2CC(=O)Nc1cc(C)cc(C)c1 | inactive: -8.63%
O=C(CNc1cccc(C(F)(F)F)c1)N/N=C/C1CCCCC1 | inactive: -3.34%
Cc1nc2ccccc2cc1OCc1ccc(Cl)cc1 | inactive: -38.1%
CCOc1ccc(NS(=O)(=O)c2ccc(OCC(=O)NCCCOC)cc2)cc1 | inactive: 2.17%
